No constants are given. Whether binding was seen depends on the method and setting. Some results given as binding are weak or reduced against the parent protein; the word gives no strength.

For assay [1], the target named is Cynomolgus CD47-His (cynomolgus). The experiment in a line: ELISA on coated cynomolgus CD47-His, anti-human IgG HRP, OD450.
For assay [2] the target is unchanged. The experiment in a line: ELISA, cynomolgus CD47-His coated. For orientation: In an ELISA, binding on a coated surface is turned into a signal by an enzyme label.

B1: AB6.12-IgG4P (antibody, V domains shown)
VH: QMQLVQSGAEVKKTGSSVKVSCKASGFNIKDYYLHWVRQAPGQALEWMGWIDPDQGDTEYAQKFQDRVTITRDRSMSTAYMELSSLRSEDTAMYYCNAAYGSSSYPMDYWGQGTTVTVSS
VL: NIQMTQSPSAMSASVGDRVTITCKASQDIHRYLSWFQQKPGKVPKHLIYRANRLVSGVPSRFSGSGSGTEFTLTISSLQPEDFATYYCLQYDEFPYTFGGGTKVEIKR
Take B1: the binding result in assay [1] and in assay [2] was “binds” throughout.

B2: Hu26T-31-PE (antibody, human IgG4, V domains shown)
VH: QVQLVQSGAEVKKPGASVKVSCKASGYTFTDYYMNWVRQAPGQGLEWIGRIYPGSGLTYYNAKFKGRATVTADKSTSTVYMELSSLRSEDTAVYYCARTSYGSSFPHVWGQGTTVTVSS
VL: DIQMTQSPSSLSASVGDRVTITCKSSQSLLNVNDQKNYLAWYQQKPGKAPKLLIYFASTRESGVPSRFSGSGSGTDFTLTISSLQPEDFATYYCQQHYSTPLTFGQGTKLEIK
Take B2: the binding entry in assay [1] and in assay [2] was “binds” in each case.

B3: Hu58A-14-PE (antibody, human IgG4, V domains shown)
VH: EVQLLESGGGLVQPGGSLRLSCAASGFIFSRFGMAWVRQTPDKRLEWVATISSGGSYTYYPDSVKGRLTISRDNAKTTLYLQMRSLKSEDTAMYYCARQGLLDYLYALDYWGQGTAVTVSS
VL: DIQMTQSPSSVSASIGDRVTITCKASQDINSFLAWFQQKPGKSPRPLIYRAYRLVDGVPSRFSGVGSGQDYSLTISSLDYEDLGIYYCQQYVEFPPTFGAGTMLELK
As to B3, the binding result in assay [1] and in assay [2] was “binds” throughout.

B4: Hu34-39-PE (antibody, human IgG4, V domains shown)
VH: QVQLQESGPGLVKPSQTLSLTCKASGYTFTNYWITWVKQRPGQGLEWIGDITPGRGETNYNQKFKGRVTLTVDISASTAYMELSSLRSEDTAVYYCSRWGLRRGDYWGQGTSVTVSS
VL: EIVLTQSPGTLSLSPGERATLSCRASSSVSSSYLNWYQQKSGASPKLWIYSTSNLASGVPGRFSGSGSGTSYSLTISSVEAEDAATYYCQQYSGYPLTFGAGTKLEVK
With B4, the binding entry in assay [1] and in assay [2] was “binds” each time.
